Data as given in the supplement of paper PMC5355238.
Where a name gives a salt, the structure may show the parent alone. ± gives the standard deviation of the averaged measurements. The list shows a part of the results. Most values come without repeats; read them as rough.

system: Reh; test: S-phase gammaH2AX median, Z-score vs plate median (drug alone); higher = more S-phase DNA damage; conditions: MK1775 concentration 0 nM; 10 µM; 4 h

| SMILES | S-phase gammaH2AX median (Z-score) |
| --- | --- |
| Clc1cnc(Oc2ccc(Oc3ncc(Cl)cc3Cl)cc2)c(Cl)c1 | 0.16 |
| CNCCc1ccc(O)c(O)c1 [N-Methyldopamine hydrochloride] | 0.0283 |
| CC(Cc1ccc(O)cc1)NCC(O)c1cc(O)cc(O)c1 (centres undefined) [Fenoterol hydrobromide] | -0.11 |
| Cn1cnc(CCN)c1 [1-Methylhistamine dihydrochloride] | -0.0118 |
| C1CCc2nnnn2CC1 [Pentylenetetrazole] | -0.0568 |
| CCCN1CCC[C@@H]2Cc3nc(N)ncc3C[C@H]21 [Quinelorane dihydrochloride] | -0.026 |
| C[C@]12CC[C@@H](O)C[C@@H]1CC[C@@H]1[C@@H]2CC[C@]2(C)C(=O)CC[C@@H]12 [Androsterone] | -0.0485 |
| Cc1ccccc1-n1c(Cn2cnc3c(N)ncnc32)nc2cccc(C)c2c1=O | 0.102 |
| CN(N=O)c1ccc(O)c(O)c1 [Me-3,4-dephostatin] | 0.0426 |
| C[C@]12CC[C@@H](O)C[C@@H]1CC[C@@H]1[C@@H]2CC[C@]2(C)[C@@H](O)CC[C@@H]12 [5alpha-Androstane-3alpha,17beta-diol] | -0.0466 |
| CC(Cc1ccc(OCC(=O)O)cc1)NCC(O)c1cccc(Cl)c1 (centres undefined) | -0.0155 |
| OC1CCCCC1N1CCC(c2ccccc2)CC1 (centres undefined) [(?)-Vesamicol hydrochloride] | 0 |
| N[C@@H](Cc1ccc(N(CCCl)CCCl)cc1)C(=O)O [Melphalan] | 1.62 ± 1.4 |
| C=CCN1C[C@H](C)N([C@H](c2ccc(C(=O)N(CC)CC)cc2)c2cccc(OC)c2)C[C@H]1C | -0.501 |
| N=C(N)NN [Aminoguanidine hydrochloride] | -0.0252 |
| N=C(N)NN [Aminoguanidine hemisulfate] | -0.0621 |
| CC(C)N(CCC(C(N)=O)(c1ccccc1)c1ccccn1)C(C)C (centres undefined) [Disopyramide] | -0.022 |
| CC(C)N(CCC(C(N)=O)(c1ccccc1)c1ccccn1)C(C)C (centres undefined) [Disopyramide phosphate] | 0.0189 |
| C[C@H](N)CN1CCc2ccc(Br)cc21 [VER-3323 hemifumarate salt] | -0.116 |
| CN1[C@@H]2CC[C@H]1C[C@@H](OC(=O)[C@H](CO)c1ccccc1)C2 [L-Hyoscyamine] | -0.0194 |
| CN(C)CCN(C)CCc1ccc(Cl)c(Cl)c1 | -0.0638 |
| O=[N+]([O-])c1cc(O)c(O)c([N+](=O)[O-])c1 [3,5-Dinitrocatechol] | -0.239 |
| CN[C@@H]1C[C@@H](c2ccc(Cl)c(Cl)c2)c2ccccc21 [Indatraline hydrochloride] | -0.255 |
| CC12CCC3C(CCC4=C(O)C(=O)CCC43C)C1CCC2=O (centres undefined) [4-Androsten-4-ol-3,17-dione] | -0.068 |
| C=C(C)[C@H]1CN[C@H](C(=O)O)[C@H]1CC(=O)O [Kainic acid] | -0.0063 |
| N[C@@H](Cn1ccc(=O)[nH]c1=O)C(=O)O [S(-)-Willardiine] | 0.407 |
| c1ccc2c(N3CCNCC3)cccc2c1 [1-(1-Naphthyl)piperazine hydrochloride] | -0.174 |
| CCCN(CCC)CCc1c[nH]c2ccc(C(N)=O)cc12 [N,N-Dipropyl-5-carboxamidotryptamine maleate] | 0.0535 |
| O=[N+]([O-])c1ccc2nc(N3CCNCC3)ccc2c1 [Quipazine, 6-nitro-, maleate] | 0.0922 |

A second format for some results above.
SMILES,S-phase gammaH2AX median (Z-score)
C1CCc2nnnn2CC1 [Pentylenetetrazole],-0.0568
CCCN1CCC[C@@H]2Cc3nc(N)ncc3C[C@H]21 [Quinelorane dihydrochloride],-0.026
C[C@]12CC[C@@H](O)C[C@@H]1CC[C@@H]1[C@@H]2CC[C@]2(C)C(=O)CC[C@@H]12 [Androsterone],-0.0485
Cc1ccccc1-n1c(Cn2cnc3c(N)ncnc32)nc2cccc(C)c2c1=O,0.102
"CN(N=O)c1ccc(O)c(O)c1 [Me-3,4-dephostatin]",0.0426
"C[C@]12CC[C@@H](O)C[C@@H]1CC[C@@H]1[C@@H]2CC[C@]2(C)[C@@H](O)CC[C@@H]12 [5alpha-Androstane-3alpha,17beta-diol]",-0.0466
CC(Cc1ccc(OCC(=O)O)cc1)NCC(O)c1cccc(Cl)c1 (centres undefined),-0.0155
